No constants are given. Whether binding was seen depends on the method and setting. In cells and extracts the contact can be indirect. Here binding means that the protein was enriched with, or labelled near, the bait; the list need not be complete. Where a sequence is shown, tags or fusion partners need not be part of it.

By UniProt entry, the sequences of proteins in these tests, tags left out.
UniProt Q99873: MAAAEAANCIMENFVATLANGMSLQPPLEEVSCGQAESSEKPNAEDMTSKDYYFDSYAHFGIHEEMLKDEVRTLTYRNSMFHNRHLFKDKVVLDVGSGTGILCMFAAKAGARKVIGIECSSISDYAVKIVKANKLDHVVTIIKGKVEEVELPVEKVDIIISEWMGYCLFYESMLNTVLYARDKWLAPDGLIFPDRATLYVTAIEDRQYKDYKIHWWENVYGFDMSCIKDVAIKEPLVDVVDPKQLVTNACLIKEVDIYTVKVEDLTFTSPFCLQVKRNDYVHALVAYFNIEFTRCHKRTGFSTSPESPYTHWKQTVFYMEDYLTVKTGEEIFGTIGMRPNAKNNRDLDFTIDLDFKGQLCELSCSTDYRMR

The assay concerns the target T1, FLAG-PHGDH WT (phosphoglycerate dehydrogenase) (human) (UniProt O43175).
T1 sequence: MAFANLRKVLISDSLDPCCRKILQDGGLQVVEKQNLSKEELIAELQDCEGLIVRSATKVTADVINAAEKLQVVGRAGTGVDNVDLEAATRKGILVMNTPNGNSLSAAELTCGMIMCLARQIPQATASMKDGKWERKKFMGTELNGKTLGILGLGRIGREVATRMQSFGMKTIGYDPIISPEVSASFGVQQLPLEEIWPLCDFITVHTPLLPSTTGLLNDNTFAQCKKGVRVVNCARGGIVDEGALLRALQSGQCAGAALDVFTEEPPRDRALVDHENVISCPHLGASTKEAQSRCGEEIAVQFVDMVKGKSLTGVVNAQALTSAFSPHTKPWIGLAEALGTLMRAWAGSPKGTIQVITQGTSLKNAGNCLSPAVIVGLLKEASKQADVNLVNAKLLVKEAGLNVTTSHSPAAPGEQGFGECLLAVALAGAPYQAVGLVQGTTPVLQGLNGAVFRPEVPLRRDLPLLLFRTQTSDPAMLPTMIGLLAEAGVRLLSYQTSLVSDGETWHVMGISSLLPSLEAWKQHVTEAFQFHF
The experiment in a line: affinity purification with mass spectrometry; HEK293T cells stably expressing FLAG-PHGDH lysed, IP with FLAG beads, SDS-PAGE bands digested with trypsin, LC-MS/MS.

As to “endogenous PRMT1 (protein arginine methyltransferase 1) (from UniProt Q99873 1-371) (enzyme)”, the binding entry is listed as “binds”.

The values above are taken from publication PMC9950448.
